{"source": "the supplement of paper PMC12889115", "tested_on": "Salmonella enterica serovar Typhimurium SL1344", "assay": "bacterial growth OD600 after 18 h with compound and polymyxin B; higher = more bacterial growth (less inhibition)", "conditions": "50 µM, Mueller-Hinton broth", "note": "The other results are listed elsewhere or left out. These are raw signals, not scaled to a control.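 Primary screen: polymyxin B was added at a level permeabilizing Salmonella outer membranes while sparing inner membranes. DMSO wells, both with and without polymyxin B, established maximum growth. Plate-to-plate variation meant each plate was ranked on its own, and the lowest-OD600 compounds were selected as hits.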"}
{"smiles": "C=CCC(=O)NC1CC(=O)N(CCc2cccc(Cl)c2)C1", "note": "(stereo not given)", "values": [{"measurement": "bacterial growth OD600", "setting": "polymyxin B 1 µg/mL", "result": 0.743}]}
{"smiles": "COc1ccccc1Oc1ncccc1CNC(=O)[C@@H]1CCCN1C(C)=O", "values": [{"measurement": "bacterial growth OD600", "setting": "polymyxin B 1 µg/mL", "result": 0.931}]}
{"smiles": "CS(=O)(=O)N1CCC2(CCCN(Cc3ccc(F)c(F)c3)C2=O)C1", "note": "(stereo not given)", "values": [{"measurement": "bacterial growth OD600", "setting": "polymyxin B 1 µg/mL", "result": 0.931}]}
{"smiles": "O=C(CCc1nc2ccccc2s1)NCCN1Cc2ccccc2OC(c2ccccc2)C1", "note": "(stereo not given)", "values": [{"measurement": "bacterial growth OD600", "setting": "polymyxin B 0.75 µg/mL", "result": 0.765}]}
{"smiles": "O=C(NCc1ccon1)c1csc2nc(-c3ccccc3)cn12", "values": [{"measurement": "bacterial growth OD600", "setting": "polymyxin B 1 µg/mL", "result": 1.08}]}
{"smiles": "COc1cccc(N2CCN(C(=O)Cn3cc(NC(=O)CCC(=O)c4ccccc4)cn3)CC2)c1", "values": [{"measurement": "bacterial growth OD600", "setting": "polymyxin B 0.75 µg/mL", "result": 0.786}]}
{"smiles": "CCCCN(C)C(=O)C1CCCN(C2CCN(C(=O)C3CC3)CC2)C1", "note": "(stereo not given)", "values": [{"measurement": "bacterial growth OD600", "setting": "polymyxin B 0.75 µg/mL", "result": 0.83}]}
{"smiles": "O=C(CC(c1ccc(O)cc1)c1cccc(O)c1)N1CCCCCCC1", "note": "(stereo not given)", "values": [{"measurement": "bacterial growth OD600", "setting": "polymyxin B 1 µg/mL", "result": 0.813}]}
{"smiles": "CN1CCCCC1CCNC(=O)c1ccc(NCc2cccc(F)c2)nc1", "note": "(stereo not given)", "values": [{"measurement": "bacterial growth OD600", "setting": "polymyxin B 1 µg/mL", "result": 0.923}]}
{"smiles": "Cc1oc(-c2ccc(C(F)(F)F)cc2)nc1CN1CCCCC1CCN1CCCC1=O", "note": "(stereo not given)", "values": [{"measurement": "bacterial growth OD600", "setting": "polymyxin B 1 µg/mL", "result": 0.874}]}
{"smiles": "O=C(CCC1(Cc2cccs2)CCC(=O)N1)NCCc1ccccc1C(F)(F)F", "note": "(stereo not given)", "values": [{"measurement": "bacterial growth OD600", "setting": "polymyxin B 0.75 µg/mL", "result": 0.791}]}
{"smiles": "Cc1occc1C(=O)N1CCC2(CCCN(Cc3ccc(F)cc3)C2=O)C1", "note": "(stereo not given)", "values": [{"measurement": "bacterial growth OD600", "setting": "polymyxin B 1 µg/mL", "result": 0.89}]}
{"smiles": "COc1ccc(CCN2CCCC(CN(C)Cc3nc4c(s3)CCCC4)C2)cc1", "note": "(stereo not given)", "values": [{"measurement": "bacterial growth OD600", "setting": "polymyxin B 0.75 µg/mL", "result": 0.622}]}
{"smiles": "O=C(c1ccc(NCCCO)nc1)N1CCCC(c2ccccc2)CC1", "note": "(stereo not given)", "values": [{"measurement": "bacterial growth OD600", "setting": "polymyxin B 1 µg/mL", "result": 1.02}]}
{"smiles": "CCOC(=O)N1CCC(NC2CCCN(c3nc4ccccc4s3)C2)CC1", "note": "(stereo not given)", "values": [{"measurement": "bacterial growth OD600", "setting": "polymyxin B 1 µg/mL", "result": 0.895}]}
{"smiles": "COc1ccc(CCN2CCCC(CN(C)CC(C)(C)CO)C2)cc1", "note": "(stereo not given)", "values": [{"measurement": "bacterial growth OD600", "setting": "polymyxin B 0.75 µg/mL", "result": 0.79}]}
{"smiles": "CN(Cc1nc(-c2cnccn2)no1)Cc1cccc2ccccc12", "values": [{"measurement": "bacterial growth OD600", "setting": "polymyxin B 1 µg/mL", "result": 0.936}]}
{"smiles": "C#CCN(C(=O)CCC1(Cc2ccc(SC)cc2)CCC(=O)N1)C1CCCCC1", "note": "(stereo not given)", "values": [{"measurement": "bacterial growth OD600", "setting": "polymyxin B 0.75 µg/mL", "result": 0.751}]}
{"smiles": "CC(C)n1cc(C(=O)N(C)CC2CCCN(CCc3ccc(Cl)cc3)C2)cn1", "note": "(stereo not given)", "values": [{"measurement": "bacterial growth OD600", "setting": "polymyxin B 1 µg/mL", "result": 0.93}]}
{"smiles": "Cc1cccc(CNC(=O)C2CCCN(C3CCN(Cc4ccccc4)CC3)C2)n1", "note": "(stereo not given)", "values": [{"measurement": "bacterial growth OD600", "setting": "polymyxin B 0.75 µg/mL", "result": 0.834}]}
{"smiles": "CC(C)Cn1cc(C(=O)NC(c2ccco2)C(F)(F)F)c(=O)c(C(=O)N2CCCCCC2)c1", "note": "(stereo not given)", "values": [{"measurement": "bacterial growth OD600", "setting": "polymyxin B 0.75 µg/mL", "result": 0.732}]}
{"smiles": "COc1ccc2cc(C(=O)C3CCCN(Cc4ccc(OC)c(OC)c4OC)C3)ccc2c1", "note": "(stereo not given)", "values": [{"measurement": "bacterial growth OD600", "setting": "polymyxin B 1 µg/mL", "result": 0.593}]}
{"smiles": "CCOc1cccc(CN2CCC3(CC2)c2ccccc2[C@@H](NC(=O)Cc2cccs2)[C@@H]3OC)c1", "values": [{"measurement": "bacterial growth OD600", "setting": "polymyxin B 0.75 µg/mL", "result": 0.797}]}
{"smiles": "CCN(Cc1ccccc1)C(=O)CC1(c2cccc(C(F)(F)F)c2)CC(=O)N(C2CC2)C1=O", "note": "(stereo not given)", "values": [{"measurement": "bacterial growth OD600", "setting": "polymyxin B 0.75 µg/mL", "result": 0.001}]}
{"smiles": "CCN(CC1CCCO1)C(=O)CC1(c2cccc(C(F)(F)F)c2)CC(=O)N(C2CC2)C1=O", "note": "(stereo not given)", "values": [{"measurement": "bacterial growth OD600", "setting": "polymyxin B 0.75 µg/mL", "result": 0.875}]}
{"smiles": "Cc1cccc(C)c1OCc1cc(C(=O)NCc2cccnc2)no1", "values": [{"measurement": "bacterial growth OD600", "setting": "polymyxin B 0.75 µg/mL", "result": 0.787}]}
{"smiles": "O=C(NCCc1cccc(F)c1)C1CCC(=O)N(CCCc2ccccc2)C1", "note": "(stereo not given)", "values": [{"measurement": "bacterial growth OD600", "setting": "polymyxin B 1 µg/mL", "result": 0.825}]}
{"smiles": "COc1ccccc1CCNC(=O)Cc1ccc(N2CCC(NCc3cccc(F)c3)CC2)cc1", "values": [{"measurement": "bacterial growth OD600", "setting": "polymyxin B 0.75 µg/mL", "result": 0.796}]}
{"smiles": "CN(C)S(=O)(=O)N1CCC(C2CCN(CCc3ccccc3)C2)CC1", "note": "(stereo not given)", "values": [{"measurement": "bacterial growth OD600", "setting": "polymyxin B 0.75 µg/mL", "result": 0.991}]}
{"smiles": "CN(C(=O)CC1C(=O)NCCN1Cc1ccccc1)C1CC(C)(C)NC(C)(C)C1", "note": "(stereo not given)", "values": [{"measurement": "bacterial growth OD600", "setting": "polymyxin B 1 µg/mL", "result": 1.04}]}
